Primary screen of a compound library

Mtb growth Cornell: 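Whole-cell assay for inhibitors of Mycobacterium tuberculosis growth, labelled Cornell in the record; the read-out is not stated. The concentration is filed as 10 mM, unlikely as a test dose, so the dose is not known. The record gives no direction; compounds strong in two other growth screens of this library score well above the rest, so higher reads as stronger inhibition. About 53,000 compounds were tested under these conditions; 1.7% (about 900) showed 50% or more at least once.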
Mtb heat-shock: 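Assay on Mycobacterium tuberculosis, filed only as a heat shock assay from Cornell; the read-out is not stated. The concentration is filed as 10 mM, unlikely as a test dose, so the dose is not known. Direction is inferred from retests: higher values go with stronger inhibition. About 69,000 compounds were tested under these conditions; 1.4% (about 930) showed 50% or more at least once.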

Results are given as percent effect.
The controls that fix the scale are not given in the record; negative values are as filed.
This is an unselected part of the compounds tested.

{"compound": "CC1CCN(CCNC(=O)Nc2ccc(F)cc2Cl)CC1", "Mtb growth Cornell": -61.25, "Mtb heat-shock": -16.36}
{"compound": "O=C(O)C(F)(F)F.O=C(O)C(F)(F)F.c1cc2nc(C3CCN(CC4CC4)CC3)nn2cc1N1CCCC1", "Mtb growth Cornell": -12.47, "Mtb heat-shock": -39.51}
{"compound": "Cc1cc(O)nc(C2CCCN(CCO)C2)n1", "stereo": "stereo not given", "Mtb growth Cornell": -22.56, "Mtb heat-shock": 12.85}
{"compound": "Cc1cc(C)n(-c2ccc(C(=O)NCC(c3cccs3)N(C)C)cc2)n1", "stereo": "stereo not given", "Mtb growth Cornell": -8.709, "Mtb heat-shock": 10.88}
{"compound": "Cc1sc(-c2ccco2)nc1C(=O)N(CC(N)=O)C1CCCC1", "Mtb growth Cornell": 11.86, "Mtb heat-shock": 8.744}
{"compound": "COc1ccc(CSc2nnc(N)n2C2CC2)cc1Cl", "Mtb growth Cornell": 22.18, "Mtb heat-shock": -10.56}
{"compound": "OCC(CO)N1CCCC(Cc2cnc(Nc3ccccn3)cn2)C1", "stereo": "stereo not given", "Mtb growth Cornell": 7.574, "Mtb heat-shock": 2.19}
{"compound": "CCC1(CO)CCCN(C(=O)c2cc(COc3cccc(F)c3)[nH]n2)C1", "stereo": "stereo not given", "Mtb growth Cornell": 44.59, "Mtb heat-shock": 6.247}
{"compound": "[H][C@]12CN(CCN3CCCC3)C(=O)[C@@]1([H])CN(c1cc(OC)ncn1)C2", "Mtb growth Cornell": 30.32, "Mtb heat-shock": -31.59}
{"compound": "O=C1COc2ccc(C(=O)N3CCCC(n4ccnc4)C3)cc2N1", "stereo": "stereo not given", "Mtb heat-shock": 1.97}
{"compound": "CCn1c(C)cc(C(=O)N2C[C@@H](C(=O)O)[C@H](c3ccccc3C)C2)c1C", "Mtb growth Cornell": 4.564, "Mtb heat-shock": -2.58}
{"compound": "CCOCCC1(CNC(=O)c2ccncc2)CCC1", "Mtb growth Cornell": 19.62, "Mtb heat-shock": -8.497}
{"compound": "NC(=O)C(NC1CCN(CC2CCCCC2)CC1)c1ccc(F)cc1", "stereo": "stereo not given", "Mtb heat-shock": -184.8}
{"compound": "O[C@H]1CN(CCOc2ccc(F)cc2)CC[C@@]12CCCO2", "Mtb growth Cornell": -12.84, "Mtb heat-shock": -9.921}
{"compound": "Clc1ccc2nncc(N3CCCCC3)c2c1", "Mtb heat-shock": -17.72}
{"compound": "CCc1nccn1C1CCCN(C(=O)c2ccc3c(c2)nnn3C)C1", "stereo": "stereo not given", "Mtb growth Cornell": -11.77, "Mtb heat-shock": -21.81}
{"compound": "O=C(O)C(F)(F)F.O=C(O)C(F)(F)F.c1cncc(COCc2nnc3n2CCN(Cc2ccco2)C3)c1", "Mtb growth Cornell": 12.29, "Mtb heat-shock": 13.99}
{"compound": "[H][C@@]12CCN(CCN(C)C)[C@@]1([H])CCN2C(=O)c1cccc(Cl)c1", "Mtb growth Cornell": 15.55, "Mtb heat-shock": 0.7904}
{"compound": "[H][C@@]12C[C@@H](OCc3ccccn3)CN1CCN(C(=O)c1ccsc1)C2", "Mtb growth Cornell": 29.49, "Mtb heat-shock": 1.281}
{"compound": "O=C(CN1CCCCC1Cn1cncn1)NCCc1ccc(F)cc1", "stereo": "stereo not given", "Mtb growth Cornell": -52.3, "Mtb heat-shock": 24.58}
{"compound": "O=S(=O)(CCCS(=O)(=O)c1ccc2c(c1)OCCCO2)c1ccccc1", "Mtb growth Cornell": 0.384, "Mtb heat-shock": -0.9615}
{"compound": "COCCS(=O)(=O)Nc1ccc(-n2nccc2C(F)(F)F)cc1", "Mtb growth Cornell": 15.84, "Mtb heat-shock": -22.61}
{"compound": "Cc1cc(N[C@H](CO)COCc2ccccc2)n2nc(C)cc2n1", "Mtb growth Cornell": 0.2285, "Mtb heat-shock": -11.35}
{"compound": "Cc1nnc(CN2CCN(CC(O)c3ccccc3)CC2)o1", "stereo": "stereo not given", "Mtb heat-shock": -0.6658}
{"compound": "Cc1[nH]c(-c2ccccc2)nc1C(=O)N1CCC(O)(CO)CC1", "Mtb growth Cornell": -19.69, "Mtb heat-shock": 17.3}
{"compound": "CC(C)(C)OC(=O)NCC1CCN(C(=O)c2ccccc2O)CC1", "Mtb growth Cornell": -18.33, "Mtb heat-shock": 36.65}
{"compound": "CN1CCC2(Cc3ccccc3CN(C(=O)Cc3cccc(Cl)c3)C2)C1", "stereo": "stereo not given", "Mtb heat-shock": -16.91}
{"compound": "CCCc1noc(C(C)N2CCN(Cc3nc(C)c(C)o3)CC2)n1", "stereo": "stereo not given", "Mtb heat-shock": -0.1493}
{"compound": "COc1ccc2c(C)c(C(=O)N3CCC(NC(C)=O)C3)oc2c1", "stereo": "stereo not given", "Mtb growth Cornell": -20.41, "Mtb heat-shock": 5.787}
{"compound": "CCC(C)NC(=O)c1cccc(CNCc2csc(C(C)C)n2)c1", "stereo": "stereo not given", "Mtb growth Cornell": 1.231, "Mtb heat-shock": -11.76}
{"compound": "Cc1ccc(CC(=O)N2Cc3nccn3CC(Cn3cccn3)C2)cc1", "stereo": "stereo not given", "Mtb growth Cornell": 40.24, "Mtb heat-shock": -13.72}
{"compound": "COc1c(C2CCCN2c2ncnc3c2cnn3C)c(C)nn1C", "stereo": "stereo not given", "Mtb heat-shock": -17.85}

Repeated from the top, 2 entries:

Compound	Mtb growth Cornell	Mtb heat-shock
CC1CCN(CCNC(=O)Nc2ccc(F)cc2Cl)CC1	-61.25%	-16.36%
O=C(O)C(F)(F)F.O=C(O)C(F)(F)F.c1cc2nc(C3CCN(CC4CC4)CC3)nn2cc1N1CCCC1	-12.47%	-39.51%

Measurements from “University of Dundee, Small-Polar-MMV Screening Library” (2021), ChEMBL document CHEMBL3988442.